These are yes or no findings as the source states them, for the method shown. In cells and extracts the contact can be indirect. Some entries that bind do so weakly or less than the wild type.

Sequences of proteins named here, by UniProt entry; tags and fusion partners are left off. Residues count along the entry.
UniProt P19438, residues 30-455: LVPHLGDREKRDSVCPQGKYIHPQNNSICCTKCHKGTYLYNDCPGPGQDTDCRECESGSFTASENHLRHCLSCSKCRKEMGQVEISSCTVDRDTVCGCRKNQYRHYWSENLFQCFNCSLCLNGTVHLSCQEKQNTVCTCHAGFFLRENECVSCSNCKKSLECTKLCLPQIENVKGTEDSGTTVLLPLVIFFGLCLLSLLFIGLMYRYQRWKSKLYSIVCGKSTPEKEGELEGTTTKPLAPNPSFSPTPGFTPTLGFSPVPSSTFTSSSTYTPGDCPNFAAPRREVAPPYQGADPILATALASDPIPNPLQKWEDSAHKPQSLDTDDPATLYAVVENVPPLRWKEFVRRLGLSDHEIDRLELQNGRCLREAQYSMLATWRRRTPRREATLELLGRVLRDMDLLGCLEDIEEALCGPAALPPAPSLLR

In assay [1] the target is T1, CD95 (Apo1/Fas) (human (endogenous in HCT116-PIK3CAmut)), P25445.
T1 chain: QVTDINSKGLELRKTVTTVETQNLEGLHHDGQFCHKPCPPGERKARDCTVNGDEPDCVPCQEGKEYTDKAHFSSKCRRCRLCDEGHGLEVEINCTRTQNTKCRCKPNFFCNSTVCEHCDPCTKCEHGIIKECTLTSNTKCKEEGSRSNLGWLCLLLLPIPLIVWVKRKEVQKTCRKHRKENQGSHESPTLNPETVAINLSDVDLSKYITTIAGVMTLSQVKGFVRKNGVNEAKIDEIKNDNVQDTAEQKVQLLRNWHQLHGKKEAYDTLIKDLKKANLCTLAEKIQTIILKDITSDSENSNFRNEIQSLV
Briefly: co-IP; CD95 signaling complex (DISC): HCT116-PIK3CAmut parental, TRAF2KO, RIPK1KO and TRAF2/RIPK1DKO cells stimulated with 1 µg/ml Fc-CD95L for 90 min, lysed (30 mM Tris HCl pH 7.5, 120 mM NaCl, 1% Triton X-100, 10% glycerol), protein G agarose overnight at 4 °C, western blot of co-precipitated proteins. Particulars: remark: other sources report otherwise. Background: In western blotting, separated proteins are transferred to a membrane and probed.

Assay [2] has as its target CD95 (Apo1/Fas) (human (endogenous in HCT116-PIK3CAmut)) (UniProt P25445). The assay is described as above.
Assay [3] concerns the target TNFR1 (human (endogenous in HCT116-PIK3CAmut)) (UniProt P19438). Briefly: co-IP; TNFR1 signaling complex: HCT116-PIK3CAmut parental, TRAF2KO, RIPK1KO and TRAF2/RIPK1DKO cells stimulated with 1 µg/ml Fc-TNF for 10 min, lysed (30 mM Tris HCl pH 7.5, 120 mM NaCl, 1% Triton X-100, 10% glycerol), protein G agarose overnight at 4 °C, western blot of co-precipitated proteins.

Assay [4] addresses CD95 (Apo1/Fas) (human (endogenous in HCT116-PIK3CAmut)) (UniProt P25445). Description: co-IP; as a3, the parental HCT116-PIK3CAmut cells only (RIPK1 expressed).

B1: Fas-associated death domain (FADD), Q13158 1-208 (protein)
chain: MDPFLVLLHSVSSSLSSSELTELKFLCLGRVGKRKLERVQSGLDLFSMLLEQNDLEPGHTELLRELLASLRRHDLLRRVDDFEAGAAAGAAPGEEDLCAAFNVICDNVGKDWRRLARQLKVSDTKIDSIEDRYPRNLTERVRESLRIWKNTEKENATVAHLVGALRSCQMNLVADLVQEVQQARDLQNRSGAMSPMSWNSDASTSEAS
With B1, the binding entry in assay [1] is “binds”.

B2: caspase-8, Q14790 1-479 (enzyme)
chain: MDFSRNLYDIGEQLDSEDLASLKFLSLDYIPQRKQEPIKDALMLFQRLQEKRMLEESNLSFLKELLFRINRLDLLITYLNTRKEEMERELQTPGRAQISAYRVMLYQISEEVSRSELRSFKFLLQEEISKCKLDDDMNLLDIFIEMEKRVILGEGKLDILKRVCAQINKSLLKIINDYEEFSKERSSSLEGSPDEFSNGEELCGVMTISDSPREQDSESQTLDKVYQMKSKPRGYCLIINNHNFAKAREKVPKLHSIRDRNGTHLDAGALTTTFEELHFEIKPHDDCTVEQIYEILKIYQLMDHSNMDCFICCILSHGDKGIIYGTDGQEAPIYELTSQFTGLKCPSLAGKPKVFFIQACQGDNYQKGIPVETDSEEQPYLEMDLSSPQTRYIPDEADFLLGMATVNNCVSYRNPAEGTWYIQSLCQSLRERCPRGDDILTILTEVNYEVSNKDDKKNMGKQMPQPTFTLRKKLVFPSD
On to B2, for which the binding result in assay [1] was “binds”.

B3: TRADD (protein, UniProt Q15628 1-312)
chain: MAAGQNGHEEWVGSAYLFVESSLDKVVLSDAYAHPQQKVAVYRALQAALAESGGSPDVLQMLKIHRSDPQLIVQLRFCGRQPCGRFLRAYREGALRAALQRSLAAALAQHSVPLQLELRAGAERLDALLADEERCLSCILAQQPDRLRDEELAELEDALRNLKCGSGARGGDGEVASAPLQPPVPSLSEVKPPPPPPPAQTFLFQGQPVVNRPLSLKDQQTFARSVGLKWRKVGRSLQRGCRALRDPALDSLAYEYEREGLYEQAFQLLRRFVQAEGRRATLQRLVEALEENELTSLAEDLLGLTDPNGGLA
B3: the binding entry is “binds” in assay [2], “binds” in assay [3] and “binds weakly” in assay [4].
